Measurements as given in article PMC8463542.
Like-named read-outs stand apart in the source and are kept apart here. Results are given in words; binding and its absence hold for the method and conditions named. Binding seen in cells or lysates may run through a third protein. Some results given as binding are weak or reduced against the parent protein; the word gives no strength. For some assays here: Sequences can lack the tags named with a protein.

Amino acid sequences for entries named in this document (tags omitted).
UniProt Q13257: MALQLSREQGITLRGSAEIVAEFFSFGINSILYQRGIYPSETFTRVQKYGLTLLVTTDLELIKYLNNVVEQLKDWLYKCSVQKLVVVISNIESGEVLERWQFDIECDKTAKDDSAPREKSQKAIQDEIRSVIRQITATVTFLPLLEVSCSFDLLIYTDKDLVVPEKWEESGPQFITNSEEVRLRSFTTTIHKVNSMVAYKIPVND

T1: PIGN (phosphatidylinositol glycan anchor biosynthesis class N), endogenous (human (endogenous in K562)) (UniProt O95427)
T1 sequence: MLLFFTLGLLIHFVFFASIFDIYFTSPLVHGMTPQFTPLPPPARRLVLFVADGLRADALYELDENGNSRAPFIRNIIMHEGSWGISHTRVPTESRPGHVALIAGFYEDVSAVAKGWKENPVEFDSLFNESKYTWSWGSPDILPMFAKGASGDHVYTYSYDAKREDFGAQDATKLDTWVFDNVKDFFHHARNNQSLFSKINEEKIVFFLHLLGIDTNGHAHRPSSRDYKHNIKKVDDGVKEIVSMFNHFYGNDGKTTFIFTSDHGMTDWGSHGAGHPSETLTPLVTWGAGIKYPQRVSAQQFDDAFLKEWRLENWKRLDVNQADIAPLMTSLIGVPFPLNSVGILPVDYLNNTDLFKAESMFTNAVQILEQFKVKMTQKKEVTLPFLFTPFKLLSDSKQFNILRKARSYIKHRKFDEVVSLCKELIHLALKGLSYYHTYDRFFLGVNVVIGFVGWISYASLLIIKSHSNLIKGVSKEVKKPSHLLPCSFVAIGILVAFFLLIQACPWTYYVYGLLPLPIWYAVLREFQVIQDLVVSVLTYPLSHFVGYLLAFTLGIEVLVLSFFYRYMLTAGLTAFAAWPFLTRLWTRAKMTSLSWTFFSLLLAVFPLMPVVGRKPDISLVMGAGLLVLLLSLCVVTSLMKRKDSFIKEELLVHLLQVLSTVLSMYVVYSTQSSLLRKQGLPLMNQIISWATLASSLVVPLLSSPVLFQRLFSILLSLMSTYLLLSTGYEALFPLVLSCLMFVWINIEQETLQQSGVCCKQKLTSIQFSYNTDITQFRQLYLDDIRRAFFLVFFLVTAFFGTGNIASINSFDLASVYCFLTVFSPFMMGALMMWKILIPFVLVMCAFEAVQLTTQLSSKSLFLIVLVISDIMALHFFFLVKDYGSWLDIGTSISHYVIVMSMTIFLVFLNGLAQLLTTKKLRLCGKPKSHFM

T2: 3HA-tagged PIGN (phosphatidylinositol glycan anchor biosynthesis class N) (human) (UniProt O95427)
T2 sequence: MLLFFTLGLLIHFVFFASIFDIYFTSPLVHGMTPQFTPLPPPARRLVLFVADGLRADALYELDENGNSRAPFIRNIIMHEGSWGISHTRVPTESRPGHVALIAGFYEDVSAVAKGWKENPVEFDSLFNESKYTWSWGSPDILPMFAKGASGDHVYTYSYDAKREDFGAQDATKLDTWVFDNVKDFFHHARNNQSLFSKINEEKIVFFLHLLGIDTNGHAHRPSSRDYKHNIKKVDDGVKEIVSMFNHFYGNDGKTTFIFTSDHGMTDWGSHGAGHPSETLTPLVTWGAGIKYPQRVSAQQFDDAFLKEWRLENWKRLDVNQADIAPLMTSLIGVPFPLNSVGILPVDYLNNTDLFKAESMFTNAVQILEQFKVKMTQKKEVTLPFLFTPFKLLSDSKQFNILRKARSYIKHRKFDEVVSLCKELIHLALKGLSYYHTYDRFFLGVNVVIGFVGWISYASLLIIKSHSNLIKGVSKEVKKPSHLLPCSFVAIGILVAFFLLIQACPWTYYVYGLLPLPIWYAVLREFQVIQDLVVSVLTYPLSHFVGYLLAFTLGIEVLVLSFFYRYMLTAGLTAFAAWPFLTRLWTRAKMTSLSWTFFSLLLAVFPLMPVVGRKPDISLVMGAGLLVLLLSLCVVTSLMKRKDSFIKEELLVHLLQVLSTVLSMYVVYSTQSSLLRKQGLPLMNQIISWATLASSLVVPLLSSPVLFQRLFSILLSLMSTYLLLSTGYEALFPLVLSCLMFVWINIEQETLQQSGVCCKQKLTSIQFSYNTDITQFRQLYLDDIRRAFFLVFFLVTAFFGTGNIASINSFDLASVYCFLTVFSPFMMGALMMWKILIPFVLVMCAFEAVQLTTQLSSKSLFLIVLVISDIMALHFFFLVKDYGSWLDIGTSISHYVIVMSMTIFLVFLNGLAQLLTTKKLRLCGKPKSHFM


Tests used:
[1] = molecular target: T1, PIGN (phosphatidylinositol glycan anchor biosynthesis class N), endogenous (human (endogenous in K562)); experiment: co-IP; endogenous proteins of K562 cells treated with Taxol (60 ng/µl) or nocodazole (60–100 ng/µl) for 12 h (SAC activation); precipitating antibody not told in the text shown
[2] = molecular target: T2, 3HA-tagged PIGN (phosphatidylinositol glycan anchor biosynthesis class N) (human); experiment: co-IP; HA-tag IP of 3HA-PIGN from transiently transfected PIGN knockout HEK293 cells, partners found by western blot; cells asynchronous (48 h post-transfection), G2/M synchronised, or released from early S-phase (double-thymidine block) over a 10-h time course
[3] = molecular target: T1, PIGN (phosphatidylinositol glycan anchor biosynthesis class N), endogenous (human (endogenous in K562)); experiment: co-IP; endogenous proteins of K562 cells treated with Taxol (60 ng/µl) or nocodazole (60–100 ng/µl) for 12 h (SAC activation); precipitating antibody not told in the text shown; remark: listed apart in the source

binding [2] | Molecule | also measured
– | MAD2, endogenous in K562 (from UniProt Q13257 1-205) | binding [1]: binds
binds | MAD2 (from UniProt Q13257 1-205) | –
binds | MAD1 (protein, UniProt Q9Y6D9 1-718) MEDLGENTMVLSTLRSLNNFISQRVEGGSGLDISTSAPGSLQMQYQQSMQLEERAEQIRSKSHLIQVEREKMQMELSHKRARVELERAASTSARNYEREVDRNQELLTRIRQLQEREAGAEEKMQEQLERNRQCQQNLDAASKRLREKEDSLAQAGETINALKGRISELQWSVMDQEMRVKRLESEKQELQEQLDLQHKKCQEANQKIQELQASQEARADHEQQIKDLEQKLSLQEQDAAIVKNMKSELVRLPRLERELKQLREESAHLREMRETNGLLQEELEGLQRKLGRQEKMQETLVGLELENERLLAKLQSWERLDQTMGLSIRTPEDLSRFVVELQQRELALKDKNSAVTSSARGLEKARQQLQEELRQVSGQLLEERKKRETHEALARRLQKRVLLLTKERDGMRAILGSYDSELTPAEYSPQLTRRMREAEDMVQKVHSHSAEMEAQLSQALEELGGQKQRADMLEMELKMLKSQSSSAEQSFLFSREEADTLRLKVEELEGERSRLEEEKRMLEAQLERRALQGDYDQSRTKVLHMSLNPTSVARQRLREDHSQLQAECERLRGLLRAMERGGTVPADLEAAAASLPSSKEVAELKKQVESAELKNQRLKEVFQTKIQEFRKACYTLTGYQIDITTENQYRLTSLYAEHPGDCLIFKATSPSGSKMQLLETEFSHTVGELIEVHLRRQDSIPAFLSSLTLELFSRQTVA | –
– | MAD1, endogenous in K562 (protein, UniProt Q9Y6D9 1-718) MEDLGENTMVLSTLRSLNNFISQRVEGGSGLDISTSAPGSLQMQYQQSMQLEERAEQIRSKSHLIQVEREKMQMELSHKRARVELERAASTSARNYEREVDRNQELLTRIRQLQEREAGAEEKMQEQLERNRQCQQNLDAASKRLREKEDSLAQAGETINALKGRISELQWSVMDQEMRVKRLESEKQELQEQLDLQHKKCQEANQKIQELQASQEARADHEQQIKDLEQKLSLQEQDAAIVKNMKSELVRLPRLERELKQLREESAHLREMRETNGLLQEELEGLQRKLGRQEKMQETLVGLELENERLLAKLQSWERLDQTMGLSIRTPEDLSRFVVELQQRELALKDKNSAVTSSARGLEKARQQLQEELRQVSGQLLEERKKRETHEALARRLQKRVLLLTKERDGMRAILGSYDSELTPAEYSPQLTRRMREAEDMVQKVHSHSAEMEAQLSQALEELGGQKQRADMLEMELKMLKSQSSSAEQSFLFSREEADTLRLKVEELEGERSRLEEEKRMLEAQLERRALQGDYDQSRTKVLHMSLNPTSVARQRLREDHSQLQAECERLRGLLRAMERGGTVPADLEAAAASLPSSKEVAELKKQVESAELKNQRLKEVFQTKIQEFRKACYTLTGYQIDITTENQYRLTSLYAEHPGDCLIFKATSPSGSKMQLLETEFSHTVGELIEVHLRRQDSIPAFLSSLTLELFSRQTVA | binding [3]: binds
binds | MPS1 (protein, UniProt P33981 1-857) MESEDLSGRELTIDSIMNKVRDIKNKFKNEDLTDELSLNKISADTTDNSGTVNQIMMMANNPEDWLSLLLKLEKNSVPLSDALLNKLIGRYSQAIEALPPDKYGQNESFARIQVRFAELKAIQEPDDARDYFQMARANCKKFAFVHISFAQFELSQGNVKKSKQLLQKAVERGAVPLEMLEIALRNLNLQKKQLLSEEEKKNLSASTVLTAQESFSGSLGHLQNRNNSCDSRGQTTKARFLYGENMPPQDAEIGYRNSLRQTNKTKQSCPFGRVPVNLLNSPDCDVKTDDSVVPCFMKRQTSRSECRDLVVPGSKPSGNDSCELRNLKSVQNSHFKEPLVSDEKSSELIITDSITLKNKTESSLLAKLEETKEYQEPEVPESNQKQWQSKRKSECINQNPAASSNHWQIPELARKVNTEQKHTTFEQPVFSVSKQSPPISTSKWFDPKSICKTPSSNTLDDYMSCFRTPVVKNDFPPACQLSTPYGQPACFQQQQHQILATPLQNLQVLASSSANECISVKGRIYSILKQIGSGGSSKVFQVLNEKKQIYAIKYVNLEEADNQTLDSYRNEIAYLNKLQQHSDKIIRLYDYEITDQYIYMVMECGNIDLNSWLKKKKSIDPWERKSYWKNMLEAVHTIHQHGIVHSDLKPANFLIVDGMLKLIDFGIANQMQPDTTSVVKDSQVGTVNYMPPEAIKDMSSSRENGKSKSKISPKSDVWSLGCILYYMTYGKTPFQQIINQISKLHAIIDPNHEIEFPDIPEKDLQDVLKCCLKRDPKQRISIPELLAHPYVQIQTHPVNQMAKGTTEEMKYVLGQLVGLNSPNSILKAAKTLYEHYSGGESHNSSSSKTFEKKRGKK | –
